Source: article PMC5289615

Sequences of proteins named here, by UniProt entry; tags and fusion partners are left off.
UniProt Q27497: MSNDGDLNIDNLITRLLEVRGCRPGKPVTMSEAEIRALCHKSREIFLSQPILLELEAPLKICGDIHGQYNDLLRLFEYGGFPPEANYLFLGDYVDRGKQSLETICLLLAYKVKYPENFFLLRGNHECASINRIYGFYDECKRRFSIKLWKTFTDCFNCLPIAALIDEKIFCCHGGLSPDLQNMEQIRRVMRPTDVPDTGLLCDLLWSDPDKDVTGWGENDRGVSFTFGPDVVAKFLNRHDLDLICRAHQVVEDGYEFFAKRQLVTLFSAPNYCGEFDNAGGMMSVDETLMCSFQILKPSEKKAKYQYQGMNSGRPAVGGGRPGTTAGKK
UniProt P48727: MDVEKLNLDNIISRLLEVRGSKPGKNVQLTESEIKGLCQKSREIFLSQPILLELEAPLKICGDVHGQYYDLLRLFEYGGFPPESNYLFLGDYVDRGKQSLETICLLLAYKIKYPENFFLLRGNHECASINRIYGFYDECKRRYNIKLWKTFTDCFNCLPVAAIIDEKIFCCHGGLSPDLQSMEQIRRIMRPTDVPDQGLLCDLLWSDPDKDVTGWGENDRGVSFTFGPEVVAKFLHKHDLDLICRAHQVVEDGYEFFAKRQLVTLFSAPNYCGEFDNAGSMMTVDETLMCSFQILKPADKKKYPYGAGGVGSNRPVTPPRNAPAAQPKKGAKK

Experiments:
Test in all cases: affinity purification with mass spectrometry; I-2^SZY-2, SDS-22 and PP1β^GSP-1 each immunoprecipitated from worm extracts; immunoprecipitated material analysed by mass spectrometry
[1] = target: I-2^SZY-2 (C. elegans homolog of inhibitor-2, regulator of protein phosphatase 1) (C. elegans (endogenous in N2 worms)) (UniProt Q9N537)
[2] = target: T1, SDS-22 (C. elegans leucine-rich repeat PP1 regulator) (C. elegans (endogenous in N2 worms)) (UniProt P45969)
T1 sequence: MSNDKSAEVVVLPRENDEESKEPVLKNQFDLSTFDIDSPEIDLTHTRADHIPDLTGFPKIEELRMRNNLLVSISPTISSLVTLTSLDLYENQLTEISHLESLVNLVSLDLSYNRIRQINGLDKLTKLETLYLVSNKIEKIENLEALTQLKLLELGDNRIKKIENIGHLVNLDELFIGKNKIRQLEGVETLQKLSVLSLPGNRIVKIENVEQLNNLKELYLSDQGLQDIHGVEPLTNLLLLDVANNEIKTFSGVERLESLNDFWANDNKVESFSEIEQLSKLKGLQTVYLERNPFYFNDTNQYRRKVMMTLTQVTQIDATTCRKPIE

[3] = target: PP1β^GSP-1 (C. elegans PP1 catalytic subunit, PP1β homolog) (C. elegans (endogenous in N2 worms)) (UniProt Q27497)

For “PP1α^GSP-2 (C. elegans PP1 catalytic subunit, PP1α homolog) (from UniProt P48727 1-333) (enzyme)”, the binding [1] was “binds”.

“PP1β^GSP-1 (C. elegans PP1 catalytic subunit, PP1β homolog) (from UniProt Q27497 1-329) (enzyme)” was tested, and the binding [1] was “binds” and the binding [2] was “binds”.

B1: SDS-22 (C. elegans leucine-rich repeat PP1 regulator) (protein, UniProt P45969 1-326)
chain: MSNDKSAEVVVLPRENDEESKEPVLKNQFDLSTFDIDSPEIDLTHTRADHIPDLTGFPKIEELRMRNNLLVSISPTISSLVTLTSLDLYENQLTEISHLESLVNLVSLDLSYNRIRQINGLDKLTKLETLYLVSNKIEKIENLEALTQLKLLELGDNRIKKIENIGHLVNLDELFIGKNKIRQLEGVETLQKLSVLSLPGNRIVKIENVEQLNNLKELYLSDQGLQDIHGVEPLTNLLLLDVANNEIKTFSGVERLESLNDFWANDNKVESFSEIEQLSKLKGLQTVYLERNPFYFNDTNQYRRKVMMTLTQVTQIDATTCRKPIE
With B1 the binding [1] was “no binding”.

B2: ZYG-1 (C. elegans homolog of Plk4) (enzyme, UniProt Q9GT24 1-706)
chain: MSGGKSGSRLSAYSHLKEIGKGGFGVVYAAQRENGEKVAIKRIDKKVPKNRVWTEIQTMKELKKSKYVVEFYEDFVEDGYTYIVMELCEGGSLQAYVREHGALDDATAVHVLRQLISAVSFMHRVNVIHRDLSAGNVFIKDSKKKKMTVKLGDFGLATTLGRGETTCTIVGTPGFIAPQVYDQEYTQSADVYSLGAVLYTMLTARNPPPKGLPPTCGMSPNAARLVEQMMDTDAKKRIPLTQIVLSEFMYENTNENAVIFSREHSRDGRRQRSREPVRSSRDDRSRDGRALIRSSSQPAHSGRAPLSNRPIHDRMPSTSSRGFDSERGRERDRDSGRGTVPPSREDRNRSQLWPIRMDRLEGQRVCTAGGRYIVELDTRCRFEVAAQGNFVKRILIVEVDEMVQTVYVHRIPDRTVRGRNGEEELITLTNNPFVYTSYSQMPKEVQNDYMRLQKMVAVTISGRVAKVTFRRPSQFPDAQAQLMENGDLRIKLPRSVIVRKMDNGEIFNCIDGIATQKQAVSGITLTKVNEVYKYLIRFEQCLNGMDRGMVCFPIVFSAGTNMVGSSPSSLMPSGSSQTSRFPFSNLSNNQPSLVPHSAPFLTKPTSSQRASSANVQRRVSTDENSSPSVAPSKYKIKIDPTTQKVRSIQATDGRVLRCSTSKADQFIFTDPAIRPDDQRFMRTDRVPDRASEMLHTLCERMRKLHQ
In the case of B2, the binding [1] is reported as “no binding”, the binding [3] is reported as “no binding” and the binding [2] is reported as “no binding”.

These are yes or no findings as the source states them, for the method shown. In cells and extracts the contact can be indirect. A yes stands for co-enrichment or nearness to the bait. Other partners may have been found. A no says only that the protein was not detected with the bait.
